Three sequences from patent US20210139964, “RNA TAGGING SYSTEM FOR VISUALIZATION OF SINGLE MRNA MOLECULES” (ALBERT EINSTEIN COLLEGE OF MEDICINE, published 2021) can be followed below.

Weaker means in comparison with the reference protein, sequence or condition of that experiment. Tags and fusion partners may be left off the protein sequences shown.

The target in the data set is T1, MS2 coat protein (MCP) (Enterobacteria phage MS2) (UniProt P03612).
T1 sequence (looked up, limits assumed): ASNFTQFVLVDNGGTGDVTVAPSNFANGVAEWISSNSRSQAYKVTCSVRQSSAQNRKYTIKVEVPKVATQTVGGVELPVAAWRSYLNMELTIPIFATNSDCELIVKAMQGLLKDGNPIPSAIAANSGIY
The data set is described as follows: EMSA. Conditions: nanomolar range, about 10-fold weaker than C-variant, purified recombinant protein, label: 5' fluorescein. In general terms: In EMSA bound probe runs differently from free probe, usually more slowly.

Take “ACAUGAGGAUUACCCAUGU [MS2 wt stem loop (U at -5)]”: the binding result (100 mM NaCl, room temperature) is listed as “binds more weakly”.

Turning to “CGCAGAGGAAUACCCUGCG [V6/V7 SL_9 wt (Loop2 U)]”, the binding result is on record as “binds more weakly”. With “GACGCAGGACUACCGCGUC [V6/V7 SL_1 wt (Loop1 U)]”, the binding result is given as “binds more weakly”.
